The whole screen tested about 320,000 compounds, of which about 22,000 (6.9%) were called active. Inconclusive means that the source gave no clear call. Such entries were picked first, then a sample of the others. Calls come from the whole dose curve; as a rule, active = well fitted inhibition curve with a large enough effect; inconclusive = small, poorly fitted or top-dose-only effect, or another doubt; inactive = no such curve, though single readings can be large or run the other way. A potency beside an inconclusive call is a rough fit, not a confirmed value.
Experiment: Primary qHTS for delayed death inhibitors of the malarial parasite plastid, 96 hour incubation
Settings: P. falciparum luciferase reporter growth; series mostly up to 28.7 µM
Outline: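 Erythrocytes infected with luciferase-expressing P. falciparum were dispensed at 2% hematocrit and 0.05% parasitemia (final), then incubated with compounds 96 hours at 37 C in 5% CO2. Luminescence after detection reagent addition reported growth.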
With `Cc1cccc[n+]1CC(=O)/C=C1\N(C)c2ccccc2C1(C)C` the Potency was active: 2.94 µM.
With `CN1CCN(S(=O)(=O)c2ccc(N(C)Cc3cccs3)nc2)CC1` the Potency was inconclusive: 18.5 µM [inhibitor, partial curve, poor fit].
With `Cc1cc(C)cc(C(=O)NC(CC(N)=O)c2ccc(NC3CCCC3)c([N+](=O)[O-])c2)c1` (stereo not drawn) the Potency was “inactive”.
With `COc1ccc(NC(=O)CCOc2ccccc2)cc1` the Potency was “inactive”.
With `COc1cc(OC)cc(C(=O)NNC(=O)c2ccc(S(=O)(=O)N3CC(C)OC(C)C3)cc2)c1` (stereo not drawn) the Potency was inconclusive: 0.0828 µM [inhibitor, full curve, poor fit].
For `COc1ccccc1CNC(=O)CCCn1c(=O)c2ccccc2n(CC(=O)NC2CCCC2)c1=O`, the Potency was active: 4.65 µM.
For `CCc1cc(=O)oc2cc(OCC(=O)N3CCC(C(=O)O)CC3)ccc12`, the Potency was inconclusive: 0.0586 µM [inhibitor, full curve].
In the case of `CCN(CC)CCNC(=S)Nc1ccc(F)cc1`, the Potency is reported as “inactive”.
With `Cc1cc(C(=O)CSc2nnnn2C)c(C)n1CCc1ccc(Cl)cc1` the Potency was “inactive”.
For `Cc1ccc(-c2nn(-c3ccccc3)cc2C(=O)Nc2ccc(C)c(S(=O)(=O)N3CCOCC3)c2)cc1`, the Potency was inconclusive: 10.4 µM [inhibitor, partial curve].
For `CC(C)(C)c1ccc(C(=O)N/C(N)=N/c2nc3ccccc3o2)cc1`, the Potency was “inactive”.
In the case of `N/C(COc1ccc(C(=O)O)cc1)=N\O`, the Potency is reported as “inactive”.
For `O=C(NC(=S)NC1CC1)c1cccnc1`, the Potency was “inactive”.
In the case of `N#Cc1cnn2c(-c3cccc(C(F)(F)F)c3)ccnc12`, the Potency is reported as “inactive”.
With `COc1ccc(/C=N/NC(=S)SC)cc1OC` the Potency was inconclusive: 3.7 µM [inhibitor, single point].
In the case of `O=C(COC(=O)CNC(=O)c1ccc([N+](=O)[O-])o1)Nc1ncc(Cl)cc1Cl`, the Potency is reported as inconclusive: 18.5 µM [inhibitor, single point].
With `CC1=C/C(=N\NC(=O)c2ccccc2)CC1` the Potency was “inactive”.
In the case of `CCc1nnc(NS(=O)(=O)c2ccc(NC(=O)c3cc(Cl)ccc3Cl)cc2)s1`, the Potency is reported as “inactive”.
In the case of `CCOC(=O)c1ccc2c(c1)n(CCCS(=O)(=O)[O-])c(/C=C/c1ccc(Cl)cc1)[n+]2CC`, the Potency is reported as inconclusive: 18.5 µM [inhibitor, single point].
For `CCn1c(=O)oc2cc(NC(=O)CCl)ccc21`, the Potency was inconclusive: 16.5 µM [inhibitor, single point].
With `CC1(C)C2CCC1(C)C(Nc1ccccc1)C2` (stereo not drawn) the Potency was inconclusive: 20.8 µM [inhibitor, partial curve, poor fit].
With `O=C(NC(CC(=O)N1CCCC(C(F)(F)F)C1)c1ccccc1)c1ccccc1Cl` (stereo not drawn) the Potency was inconclusive: 18.5 µM [inhibitor, single point].
For `CCC(C)CCN1C(N(C)C)=NC[C@@H]1Cc1ccccc1` (stereo partly drawn), the Potency was inconclusive: 18.5 µM [inhibitor, single point].
In the case of `COC(=O)Cn1c(O)c(N=NC(=O)c2ccc3c(c2)OCO3)c2ccccc21`, the Potency is reported as inconclusive: 3.29 µM [inhibitor, full curve, poor fit].
In the case of `CCOc1ccc(OCC)c(NC(=O)CN2CCN(c3cccc(C)c3)C(C)C2)c1` (stereo not drawn), the Potency is reported as inconclusive: 4.15 µM [inhibitor, full curve, poor fit].
With `CCOC(=O)c1c(C)n(C)c2ccc(OC)c(NC(=O)CCN3CCC(Cc4ccccc4)CC3)c12` the Potency was inconclusive: 9.28 µM [inhibitor, partial curve, poor fit].
In the case of `Cc1cc(C)nc(SCc2ccc(C(=O)N/N=C3\CCCC(=O)C3)cc2)n1`, the Potency is reported as inconclusive: 0.465 µM [inhibitor, partial curve, poor fit].
With `CCN(CC)c1nc(Nc2ccc([N+](=O)[O-])cc2)nc(N(CC)CC)n1` the Potency was “inactive”.
For `CC(C)C(=O)Nc1ccc(NC(=O)c2ccc3c(c2)OCO3)cc1`, the Potency was “inactive”.
For `C=CCN1C(=O)N/C(=C/c2ccc(N3CCOCC3)o2)C1=O`, the Potency was inconclusive: 8.28 µM [inhibitor, partial curve].
With `CCc1nnc(NC(=O)CSc2nnc(-c3cc4ccccc4cc3O)n2CCOC)s1` the Potency was inconclusive: 3.7 µM [inhibitor, single point].
For `COCCN(CCOC)C(=O)c1cc2c(=O)n3ccccc3nc2s1`, the Potency was “inactive”.
With `O=C(CSc1nc2ccccc2c(=O)n1-c1ccccc1)N/N=C/C=C/c1ccccc1[N+](=O)[O-]` the Potency was inconclusive: 6.57 µM [inhibitor, partial curve].
In the case of `CC1CCCC(NC(=O)C2CCCN2S(=O)(=O)c2cccc3nsnc23)C1C` (stereo not drawn), the Potency is reported as “inactive”.
For `COc1ccc(OC)c(C(=O)CSc2nnc(Cc3cccs3)n2CCc2ccccc2)c1`, the Potency was active: 13.1 µM.
For `Cc1nc(C(F)(F)F)ccc1C(=O)Nc1ccc(C(F)(F)F)cn1`, the Potency was “inactive”.
With `CCc1cccc(C)c1NC(=O)C1CCCN1C(=O)NCc1ccccc1` (stereo not drawn) the Potency was “inactive”.
For `COc1ccc(C2=NS(=O)(=O)N(C)C(C(=O)Nc3cc(C)ccc3O)=C2)cc1OC`, the Potency was inconclusive: 9.28 µM [inhibitor, single point].
In the case of `CN(c1ccccc1C(=O)Nc1cccc(C(F)(F)F)c1)S(C)(=O)=O`, the Potency is reported as inconclusive: 2.62 µM [inhibitor, partial curve, poor fit].
With `O=C(N/N=C/c1cccc(F)c1)NC1CCCCC1` the Potency was “inactive”.
For `COc1ccc(N2CCN(C(=O)CN(c3cccc(OC)c3)S(=O)(=O)c3ccccc3)CC2)cc1`, the Potency was inconclusive: 11.7 µM [inhibitor, partial curve, poor fit].
In the case of `O=C(NCCN1CCN(C(=O)Nc2ccccc2)CC1)Nc1ccccc1`, the Potency is reported as active: 5.22 µM.
In the case of `Cc1cc2cc(CCNC(=O)C(=O)c3c[nH]c4ccccc34)c(=O)[nH]c2cc1C`, the Potency is reported as inconclusive: 3.7 µM [inhibitor, partial curve, poor fit].
In the case of `OC1CCCN(Cc2nc(Cc3ccccc3Cl)no2)C1` (stereo not drawn), the Potency is reported as active: 10.4 µM.
For `COc1ccc2[nH]c(=O)c(CN(Cc3cccnc3)S(=O)(=O)c3ccccc3F)cc2c1`, the Potency was inconclusive: 18.5 µM [inhibitor, single point].
For `C=CCn1c(CNS(=O)(=O)c2ccc(Br)cc2)n[nH]c1=S`, the Potency was “inactive”.
In the case of `O=C(CSc1n[nH]c(=O)n1C1CC1)Nc1cc(Cl)ccc1Oc1ccccc1`, the Potency is reported as inconclusive: 1.04 µM [inhibitor, partial curve, poor fit].
For `COc1ccc(S(=O)(=O)N2CCC(Cc3ccccc3)CC2)cc1NC(C)=O`, the Potency was active: 4.65 µM.
For `S=C(NCCc1cccc(Cl)c1)NCc1ccccc1`, the Potency was inconclusive: 18.5 µM [inhibitor, single point].
In the case of `CCNc1nc(NC(C)CC)nc(ON=C(C)C)n1` (stereo not drawn), the Potency is reported as active: 13.1 µM.
In the case of `CCN(C(=O)CSc1nnnn1-c1ccccc1)C1CCS(=O)(=O)C1` (stereo not drawn), the Potency is reported as “inactive”.
With `Cc1ccc(NC(=O)CC2C(=O)N(Cc3ccccc3)C(=S)N2NC(=O)c2ccccc2)c(C)c1` (stereo not drawn) the Potency was inconclusive: 1.85 µM [inhibitor, full curve].
For `O=C(NCCc1cccnc1)C1CCC(=O)N(Cc2ccc(Cl)cc2)C1` (stereo not drawn), the Potency was “inactive”.
In the case of `COc1ccccc1NS(=O)(=O)c1cccc(C(=O)NCC(c2ccc(F)cc2)N2CCOCC2)c1` (stereo not drawn), the Potency is reported as inconclusive: 18.5 µM [inhibitor, single point].
With `Cc1cccc(/C=N/Nc2ccc3ccccc3n2)c1` the Potency was “inactive”.
With `CN(C(=O)CC(NC(=O)c1ccccc1)(c1ccccc1)c1ccccc1)c1ccccc1` the Potency was inconclusive: 13.1 µM [inhibitor, single point].
With `CN(C)C(CNC1CC(C)(C)NC(C)(C)C1)c1cccc(F)c1` (stereo not drawn) the Potency was “inactive”.
For `COC(=O)c1ccc(-c2ccc(CNCC(O)c3ccccc3)o2)cc1` (stereo not drawn), the Potency was active: 11.7 µM.
In the case of `COc1ccc(NC(=O)CC2C(=O)N(c3ccc(Cl)cc3)C(=S)N2CCc2ccccn2)cc1` (stereo not drawn), the Potency is reported as inconclusive: 18.5 µM [inhibitor, single point].
With `Cc1cccn2cc(-c3ccc(F)cc3)nc12` the Potency was “inactive”.
For `CC(=O)NCCc1ccc(S(=O)(=O)Nc2cccnc2)cc1`, the Potency was “inactive”.
For `O=C(CN1C(=O)S/C(=C/c2ccncc2)C1=O)Nc1ccccc1`, the Potency was inconclusive: 4.15 µM [inhibitor, partial curve, poor fit].
For `O=C(Nc1ccon1)c1cccc(S(=O)(=O)N2CCCCCC2)c1`, the Potency was inconclusive: 18.5 µM [inhibitor, single point].
For `Cc1ccc(C(=O)C2=C(O)C(=O)N(c3ncccn3)C2c2cccc(Cl)c2)o1` (stereo not drawn), the Potency was inconclusive: 0.828 µM [inhibitor, full curve, poor fit].
With `COc1ccc(N(CC(=O)Nc2ccc(C)cn2)S(=O)(=O)c2c(C)nn(C)c2C)cc1` the Potency was inconclusive: 11.7 µM [inhibitor, single point].
With `O=S(=O)(/N=C(\c1ccc(Cl)cc1)N1CCOCC1)c1ccccc1` the Potency was “inactive”.
In the case of `Cc1ccc(S(=O)(=O)NCCN2CCOCC2)c(C)c1C`, the Potency is reported as inconclusive: 10.4 µM [inhibitor, single point].
With `CCCCNC(=O)c1cccc2c(=O)c(C)c(-c3ccccc3)oc12` the Potency was inconclusive: 16.5 µM [inhibitor, single point].
For `Cc1ccc(-c2csc3nc4cc(C(=O)NC5CCC(O)CC5)ccc4c(=O)n23)cc1` (stereo not drawn), the Potency was “inactive”.
For `CC(C)(C)C1CCC(C(=O)NCC(c2cccs2)N2CCOCC2)CC1` (stereo not drawn), the Potency was inconclusive: 18.5 µM [inhibitor, single point].
With `Cc1ccc2nc(-c3cccnc3)cc(C(=O)N3CCN(c4ccc([N+](=O)[O-])cc4)CC3)c2c1` the Potency was “inactive”.
In the case of `O=C(c1ccco1)n1nc(-c2ccccc2)nc1NCc1ccco1`, the Potency is reported as “inactive”.
For `O=C(CSc1ncnc2sc3c(c12)CCC3)N1CCOCC1`, the Potency was inconclusive: 18.5 µM [inhibitor, single point].

— PubChem BioAssay AID504834 (National Center for Advancing Translational Sciences (NCATS), 2011)
Potency is the fitted concentration of half-maximal effect.
